# Data taken from the supplement of paper PMC6411743.
# Chains of the proteins cited; added tags and fusions are not shown. Lines headed by an entry give the natural chain unless they say otherwise; changes in a name come on top.
# UniProt O75503: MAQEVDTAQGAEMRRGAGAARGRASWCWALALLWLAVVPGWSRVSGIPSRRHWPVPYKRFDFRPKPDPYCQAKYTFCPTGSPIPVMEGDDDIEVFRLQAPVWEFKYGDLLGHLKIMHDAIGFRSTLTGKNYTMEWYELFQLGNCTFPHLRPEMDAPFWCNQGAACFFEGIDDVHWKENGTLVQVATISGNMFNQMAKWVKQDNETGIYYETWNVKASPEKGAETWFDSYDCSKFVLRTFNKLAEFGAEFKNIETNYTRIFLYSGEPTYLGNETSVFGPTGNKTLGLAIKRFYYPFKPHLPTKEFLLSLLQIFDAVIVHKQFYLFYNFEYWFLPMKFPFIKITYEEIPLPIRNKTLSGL
# UniProt P25787: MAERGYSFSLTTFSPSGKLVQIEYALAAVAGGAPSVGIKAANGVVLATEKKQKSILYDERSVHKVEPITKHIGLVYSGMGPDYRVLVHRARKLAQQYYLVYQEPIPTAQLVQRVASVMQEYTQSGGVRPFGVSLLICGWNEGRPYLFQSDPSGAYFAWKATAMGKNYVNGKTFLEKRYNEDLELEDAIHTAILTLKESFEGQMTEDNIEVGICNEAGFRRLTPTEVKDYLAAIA
# UniProt Q14241: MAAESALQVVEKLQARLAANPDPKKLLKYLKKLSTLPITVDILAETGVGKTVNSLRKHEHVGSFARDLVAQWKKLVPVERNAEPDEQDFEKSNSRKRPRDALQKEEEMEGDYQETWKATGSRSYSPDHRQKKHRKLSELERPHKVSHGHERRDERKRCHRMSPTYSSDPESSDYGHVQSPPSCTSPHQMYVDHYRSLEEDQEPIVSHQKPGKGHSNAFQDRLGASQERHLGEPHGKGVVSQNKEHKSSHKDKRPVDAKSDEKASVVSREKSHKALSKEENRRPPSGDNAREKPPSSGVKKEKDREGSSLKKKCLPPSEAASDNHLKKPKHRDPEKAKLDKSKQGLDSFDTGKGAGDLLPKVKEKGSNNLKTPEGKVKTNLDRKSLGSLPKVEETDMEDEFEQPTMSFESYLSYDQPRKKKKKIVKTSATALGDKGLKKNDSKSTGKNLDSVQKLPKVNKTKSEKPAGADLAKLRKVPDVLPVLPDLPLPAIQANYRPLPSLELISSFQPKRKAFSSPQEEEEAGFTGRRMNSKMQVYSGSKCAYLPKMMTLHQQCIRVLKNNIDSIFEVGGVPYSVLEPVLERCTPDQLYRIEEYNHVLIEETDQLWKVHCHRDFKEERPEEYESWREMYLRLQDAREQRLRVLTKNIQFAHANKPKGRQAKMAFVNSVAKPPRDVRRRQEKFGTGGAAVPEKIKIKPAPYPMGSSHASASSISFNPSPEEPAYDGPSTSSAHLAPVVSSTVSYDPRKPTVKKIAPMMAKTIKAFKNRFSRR
# UniProt Q16670: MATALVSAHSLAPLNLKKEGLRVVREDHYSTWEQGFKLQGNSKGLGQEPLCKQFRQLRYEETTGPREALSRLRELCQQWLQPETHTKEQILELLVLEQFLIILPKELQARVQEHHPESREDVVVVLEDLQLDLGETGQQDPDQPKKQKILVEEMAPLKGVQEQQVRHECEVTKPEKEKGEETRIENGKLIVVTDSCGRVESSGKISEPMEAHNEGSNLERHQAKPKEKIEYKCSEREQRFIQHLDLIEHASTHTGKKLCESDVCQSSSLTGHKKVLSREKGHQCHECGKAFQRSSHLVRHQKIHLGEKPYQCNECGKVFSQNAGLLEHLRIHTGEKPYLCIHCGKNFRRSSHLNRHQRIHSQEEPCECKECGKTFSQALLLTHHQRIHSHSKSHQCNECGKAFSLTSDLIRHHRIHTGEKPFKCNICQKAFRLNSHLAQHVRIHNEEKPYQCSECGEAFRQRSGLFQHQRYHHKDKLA
# UniProt Q9UMR5: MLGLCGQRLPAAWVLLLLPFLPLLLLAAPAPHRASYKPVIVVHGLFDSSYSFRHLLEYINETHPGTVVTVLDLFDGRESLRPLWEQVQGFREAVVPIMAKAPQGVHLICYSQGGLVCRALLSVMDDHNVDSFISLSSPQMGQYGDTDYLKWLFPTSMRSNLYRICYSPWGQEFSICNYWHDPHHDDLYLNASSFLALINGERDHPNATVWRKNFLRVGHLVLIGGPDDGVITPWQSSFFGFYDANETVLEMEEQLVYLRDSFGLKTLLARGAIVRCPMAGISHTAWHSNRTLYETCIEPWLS
# UniProt P46379: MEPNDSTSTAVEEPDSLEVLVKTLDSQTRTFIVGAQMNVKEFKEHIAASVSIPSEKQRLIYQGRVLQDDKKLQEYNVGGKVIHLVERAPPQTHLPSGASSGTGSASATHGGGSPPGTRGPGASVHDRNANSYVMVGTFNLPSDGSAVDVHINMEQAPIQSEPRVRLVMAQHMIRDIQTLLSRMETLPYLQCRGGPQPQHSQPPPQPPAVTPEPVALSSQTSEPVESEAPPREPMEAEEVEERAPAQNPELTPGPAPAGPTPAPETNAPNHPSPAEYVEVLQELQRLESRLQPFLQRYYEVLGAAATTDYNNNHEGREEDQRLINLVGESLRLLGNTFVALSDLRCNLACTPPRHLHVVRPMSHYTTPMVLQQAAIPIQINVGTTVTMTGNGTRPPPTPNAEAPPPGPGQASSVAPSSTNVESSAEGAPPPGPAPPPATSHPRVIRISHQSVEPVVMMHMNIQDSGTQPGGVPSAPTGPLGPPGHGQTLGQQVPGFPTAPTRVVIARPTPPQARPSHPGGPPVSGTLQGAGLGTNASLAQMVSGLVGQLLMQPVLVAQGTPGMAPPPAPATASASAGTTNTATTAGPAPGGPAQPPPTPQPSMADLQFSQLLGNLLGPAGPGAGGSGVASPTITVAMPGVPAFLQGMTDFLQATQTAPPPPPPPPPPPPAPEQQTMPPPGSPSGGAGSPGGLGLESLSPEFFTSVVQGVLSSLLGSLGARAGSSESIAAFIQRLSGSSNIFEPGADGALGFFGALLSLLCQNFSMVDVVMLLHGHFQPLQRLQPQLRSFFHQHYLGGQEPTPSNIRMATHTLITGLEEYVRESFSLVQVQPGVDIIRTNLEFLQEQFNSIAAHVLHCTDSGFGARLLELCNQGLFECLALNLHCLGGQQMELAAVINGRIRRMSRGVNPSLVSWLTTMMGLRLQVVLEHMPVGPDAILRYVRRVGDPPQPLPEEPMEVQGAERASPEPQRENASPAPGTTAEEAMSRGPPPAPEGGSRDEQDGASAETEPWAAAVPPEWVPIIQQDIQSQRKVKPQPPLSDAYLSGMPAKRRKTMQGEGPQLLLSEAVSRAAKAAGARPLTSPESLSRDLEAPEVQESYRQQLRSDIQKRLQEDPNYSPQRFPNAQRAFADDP
# ± gives the standard deviation of the averaged measurements. The entries are a selection whose mix differs from that of the whole data set.
# Legend:
# Test in all cases: NP40-soluble protein abundance relative to vehicle (solubility fold change) (ratio); higher = more soluble protein in presence of ATP
# A0A024R644|O75503 = A0A024R644|O75503 (UniProt O75503)
# Outline: (§1)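 Each value is a fold change relative to the detergent-processed vehicle, calculated per replicate from vsn-normalised intensities. Jurkat crude lysate received eight concentrations (0.1 to 10 mM) for 10 min at room temperature and 3 min at 37 °C, then was solubilised in 0.8% NP40 with benzonase (60 min, 4 °C). The ultracentrifuged supernatant was TMT-labelled and run by LC-MS/MS in three independent experiments.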
# A0A024RA52|P25787 = A0A024RA52|P25787 (UniProt P25787)
# Outline: as §1
# A0A024RAC6 = A0A024RAC6 (UniProt Q14241)
# Outline: as §1
# [1] = biological target: A0A024RCN4|A0A087X2F1|Q16670 and related entries (UniProt Q16670)
# Outline: as §1
# [2] = biological target: A0A024RCQ8|A0A0G2JH76|A0A140T8X7|Q9UMR5 and related entries (UniProt Q9UMR5)
# Outline: as §1
# [3] = biological target: A0A024RCR6|A0A0G2JK23|P46379 and related entries (UniProt P46379)
# Outline: as §1
# A0A067XG54 = biological target: T1, A0A067XG54 (UniProt Q8NB49)
# T1 sequence (whole entry): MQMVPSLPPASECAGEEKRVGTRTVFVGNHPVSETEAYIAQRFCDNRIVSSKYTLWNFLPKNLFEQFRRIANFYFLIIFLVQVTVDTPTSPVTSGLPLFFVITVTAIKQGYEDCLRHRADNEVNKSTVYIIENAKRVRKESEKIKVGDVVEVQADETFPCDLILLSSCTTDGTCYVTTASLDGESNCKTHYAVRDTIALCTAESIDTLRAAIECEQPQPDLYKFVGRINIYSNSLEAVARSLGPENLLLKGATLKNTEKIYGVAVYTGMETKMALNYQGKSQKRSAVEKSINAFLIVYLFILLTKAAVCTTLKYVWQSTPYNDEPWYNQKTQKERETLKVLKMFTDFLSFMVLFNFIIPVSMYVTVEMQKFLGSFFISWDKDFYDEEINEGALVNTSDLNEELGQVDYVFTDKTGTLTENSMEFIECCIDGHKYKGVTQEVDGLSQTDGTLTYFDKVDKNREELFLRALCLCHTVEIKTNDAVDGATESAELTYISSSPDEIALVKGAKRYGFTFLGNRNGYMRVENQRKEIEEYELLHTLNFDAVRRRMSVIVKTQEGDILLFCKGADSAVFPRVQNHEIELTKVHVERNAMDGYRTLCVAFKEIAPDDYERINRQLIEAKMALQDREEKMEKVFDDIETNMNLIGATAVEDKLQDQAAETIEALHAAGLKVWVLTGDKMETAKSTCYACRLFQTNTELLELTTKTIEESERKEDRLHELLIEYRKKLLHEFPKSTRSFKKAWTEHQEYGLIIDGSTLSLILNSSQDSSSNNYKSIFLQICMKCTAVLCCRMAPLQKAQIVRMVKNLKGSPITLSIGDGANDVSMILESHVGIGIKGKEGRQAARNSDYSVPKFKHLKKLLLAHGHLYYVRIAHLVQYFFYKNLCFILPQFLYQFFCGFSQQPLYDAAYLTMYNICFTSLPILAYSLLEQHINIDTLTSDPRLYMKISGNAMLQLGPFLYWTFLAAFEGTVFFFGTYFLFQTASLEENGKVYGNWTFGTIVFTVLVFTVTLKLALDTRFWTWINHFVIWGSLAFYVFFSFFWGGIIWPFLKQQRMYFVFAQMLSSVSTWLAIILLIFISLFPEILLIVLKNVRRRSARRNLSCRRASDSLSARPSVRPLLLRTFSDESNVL
# Outline: as §1
compound,measurement,setting,value
Nc1ncnc2c1ncn2[C@@H]1O[C@H](COP(=O)(O)OP(=O)(O)OP(=O)(O)O)[C@@H](O)[C@H]1O [adenosine triphosphate],NP40-soluble protein abundance,A0A024R644|O75503; concentration: 1mM,0.928 ± 0.041
same,NP40-soluble protein abundance,A0A024R644|O75503; concentration: 2mM,0.979 ± 0.027
same,NP40-soluble protein abundance,A0A024R644|O75503; concentration: 4mM,0.945 ± 0.024
same,NP40-soluble protein abundance,A0A024R644|O75503; concentration: 6mM,0.933 ± 0.049
same,NP40-soluble protein abundance,A0A024R644|O75503; concentration: 8mM,0.936 ± 0.03
same,NP40-soluble protein abundance,A0A024R644|O75503; concentration: 10mM,0.964 ± 0.033
same,NP40-soluble protein abundance,A0A024RA52|P25787; concentration: 1mM,0.921 ± 0.029
same,NP40-soluble protein abundance,A0A024RA52|P25787; concentration: 2mM,0.879 ± 0.028
same,NP40-soluble protein abundance,A0A024RA52|P25787; concentration: 4mM,0.843 ± 0.033
same,NP40-soluble protein abundance,A0A024RA52|P25787; concentration: 6mM,0.881 ± 0.098
same,NP40-soluble protein abundance,A0A024RA52|P25787; concentration: 8mM,0.878 ± 0.08
same,NP40-soluble protein abundance,A0A024RA52|P25787; concentration: 10mM,0.862 ± 0.051
same,NP40-soluble protein abundance,A0A024RAC6; concentration: 1mM,0.961 ± 0.072
same,NP40-soluble protein abundance,A0A024RAC6; concentration: 2mM,0.997 ± 0.044
same,NP40-soluble protein abundance,A0A024RAC6; concentration: 4mM,1.02 ± 0.06
same,NP40-soluble protein abundance,A0A024RAC6; concentration: 6mM,1.09 ± 0.041
same,NP40-soluble protein abundance,A0A024RAC6; concentration: 8mM,1.05 ± 0.022
same,NP40-soluble protein abundance,A0A024RAC6; concentration: 10mM,1.06 ± 0.048
same,NP40-soluble protein abundance,[1]; concentration: 1mM,1.09 ± 0.033
same,NP40-soluble protein abundance,[1]; concentration: 2mM,1.12 ± 0.026
same,NP40-soluble protein abundance,[1]; concentration: 4mM,1.12 ± 0.066
same,NP40-soluble protein abundance,[1]; concentration: 6mM,1.14 ± 0.051
same,NP40-soluble protein abundance,[1]; concentration: 8mM,1.23 ± 0.025
same,NP40-soluble protein abundance,[1]; concentration: 10mM,1.21 ± 0.018
same,NP40-soluble protein abundance,[2]; concentration: 1mM,0.923 ± 0.055
same,NP40-soluble protein abundance,[2]; concentration: 2mM,0.942 ± 0.046
same,NP40-soluble protein abundance,[2]; concentration: 4mM,0.927 ± 0.049
same,NP40-soluble protein abundance,[2]; concentration: 6mM,0.875 ± 0.07
same,NP40-soluble protein abundance,[2]; concentration: 8mM,0.893 ± 0.06
same,NP40-soluble protein abundance,[2]; concentration: 10mM,0.917 ± 0.045
same,NP40-soluble protein abundance,[3]; concentration: 1mM,0.973 ± 0.026
same,NP40-soluble protein abundance,[3]; concentration: 2mM,0.957 ± 0.021
same,NP40-soluble protein abundance,[3]; concentration: 4mM,0.951 ± 0.03
same,NP40-soluble protein abundance,[3]; concentration: 6mM,0.951 ± 0.043
same,NP40-soluble protein abundance,[3]; concentration: 8mM,0.944 ± 0.045
same,NP40-soluble protein abundance,[3]; concentration: 10mM,0.94 ± 0.01
same,NP40-soluble protein abundance,A0A067XG54; concentration: 1mM,1.07 ± 0.059
same,NP40-soluble protein abundance,A0A067XG54; concentration: 2mM,1.05 ± 0.043
same,NP40-soluble protein abundance,A0A067XG54; concentration: 4mM,1.02 ± 0.069
same,NP40-soluble protein abundance,A0A067XG54; concentration: 6mM,0.974 ± 0.062
same,NP40-soluble protein abundance,A0A067XG54; concentration: 8mM,1.04 ± 0.037
same,NP40-soluble protein abundance,A0A067XG54; concentration: 10mM,1.015 ± 0.0045
